Measured values taken from paper PMC8539644.
These are yes or no findings as the source states them, for the method shown. Binding seen in cells or lysates may run through a third protein. Where a sequence is shown, tags or fusion partners need not be part of it.

Biological target: GerD–mScarlet-I (Bacillus cereus ATCC 14579)
Assay: FRET or BRET; sensitized emission (filter) FRET by wide-field fluorescence microscopy in single dormant B. cereus spores; donor SGFP2, acceptor mScarlet-I; normalized FRET (NFRET) corrected for bleed-through and cross-excitation

B1: SASP–SGFP2 (protein, UniProt P0A4F4 1-65)
chain: MSRSTNKLAVPGAESALDQMKYEIAQEFGVQLGADATARANGSVGGEITKRLVSLAEQQLGGYQK
For B1, the binding was “no binding”.
